Results published in doi:10.1101/2023.01.18.524551.
No constants are given. Whether binding was seen depends on the method and setting. Some entries that bind do so weakly or less than the wild type.

Chains of the proteins cited; added tags and fusions are not shown. Residues count along the entry.
UniProt Q16581: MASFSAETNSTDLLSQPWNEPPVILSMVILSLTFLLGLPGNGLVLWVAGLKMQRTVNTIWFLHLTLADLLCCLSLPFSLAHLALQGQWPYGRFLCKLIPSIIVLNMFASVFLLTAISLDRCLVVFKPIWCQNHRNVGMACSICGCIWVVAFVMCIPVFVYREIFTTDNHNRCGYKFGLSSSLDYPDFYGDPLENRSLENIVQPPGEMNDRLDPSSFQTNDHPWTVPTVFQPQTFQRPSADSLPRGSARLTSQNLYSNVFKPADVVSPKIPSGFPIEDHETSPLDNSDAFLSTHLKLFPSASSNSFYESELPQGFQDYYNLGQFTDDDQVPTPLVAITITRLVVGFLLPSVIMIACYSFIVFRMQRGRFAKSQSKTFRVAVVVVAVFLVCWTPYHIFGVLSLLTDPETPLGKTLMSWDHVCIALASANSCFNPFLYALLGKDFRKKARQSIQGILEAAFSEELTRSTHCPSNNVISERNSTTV
UniProt P21730: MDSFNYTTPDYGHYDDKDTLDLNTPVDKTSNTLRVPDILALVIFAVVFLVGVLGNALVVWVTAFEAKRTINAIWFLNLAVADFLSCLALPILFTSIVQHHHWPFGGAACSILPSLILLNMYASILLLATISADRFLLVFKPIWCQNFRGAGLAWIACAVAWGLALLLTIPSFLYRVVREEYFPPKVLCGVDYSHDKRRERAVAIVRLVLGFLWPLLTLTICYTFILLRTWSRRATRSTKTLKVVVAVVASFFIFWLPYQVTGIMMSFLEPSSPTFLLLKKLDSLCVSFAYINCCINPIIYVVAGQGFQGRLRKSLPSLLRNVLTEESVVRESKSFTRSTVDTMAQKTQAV
UniProt P01024, residues 672-748: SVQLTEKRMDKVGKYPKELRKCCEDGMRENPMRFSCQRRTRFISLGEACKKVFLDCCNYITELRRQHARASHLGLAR
UniProt P01031, residues 678-751: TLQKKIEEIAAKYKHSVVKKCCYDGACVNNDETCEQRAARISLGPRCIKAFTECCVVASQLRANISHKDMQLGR

Columns and labels:
[1] = biological target: full length human C3aR (residues 1-482), FLAG-BN at the N-terminus, His8 at the C-terminus (human) (UniProt Q16581); assay: cryo-EM structure
[2] = biological target: full length human C5aR1 (residues 1-350), FLAG-BN at the N-terminus, His8 at the C-terminus (human) (UniProt P21730); assay: cryo-EM structure

Substance	binding [1]	binding [2]
His6-SUMOstar-C3a (recombinant human C3a, residues 1-77) (from UniProt P01024 672-748) (ligand)	binds	
His6-SUMOstar-C5a (recombinant human C5a, residues 1-74) (from UniProt P01031 678-751) (ligand)		binds
